# The exact form of at least one protein or probe is not confirmed. For some assays here: Weaker means in comparison with the reference protein, sequence or condition of that experiment. For some assays here: At least one verdict rests on a figure or table, not on a statement of the authors.
# Amino acid sequences for entries named in this document (tags omitted). A change or cut given only in a name is not applied to a line headed by its entry.
# UniProt P0ACF4: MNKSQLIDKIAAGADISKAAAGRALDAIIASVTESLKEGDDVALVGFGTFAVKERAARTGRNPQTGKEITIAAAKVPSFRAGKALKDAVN
# Legend:
# Assay in all cases: EMSA
# HUα + HUβ(K86ac) = settings: heterodimer, 30 mM Tris pH 7.5, 100 mM NaCl, 0.02% Tween20, 0.5 mg/ml BSA, 30-bp DNA 1 µM, 18°C 10 min, 10% PAGE in TBE, long DNA 250 ng in 15 µL, 37°C 1 h, 0.5% agarose in TAE, recombinant protein, protein details: C-terminal 6xHis,C-terminal 6xHis
# [1] = target: HUβ(K86ac) (Escherichia coli BL21(DE3)) (UniProt P0ACF4); settings: homodimer, lower affinity than HUβ2; nick in bottom strand; 30 mM Tris pH 7.5, 100 mM NaCl, 0.02% Tween20, 0.5 mg/ml BSA; 30-bp DNA 1 µM, 18°C 10 min, 10% PAGE in TBE; long DNA 250 ng in 15 µL, 37°C 1 h, 0.5% agarose in TAE; recombinant protein; residues 1-90; protein details: C-terminal 6xHis
# HUα + HUβ(K67ac) = settings: heterodimer, no significant change versus HUαβ (p > 0.15); 2-nt gap in bottom strand; 30 mM Tris pH 7.5, 100 mM NaCl, 0.02% Tween20, 0.5 mg/ml BSA; 30-bp DNA 1 µM, 18°C 10 min, 10% PAGE in TBE; long DNA 250 ng in 15 µL, 37°C 1 h, 0.5% agarose in TAE; recombinant protein; protein details: C-terminal 6xHis,C-terminal 6xHis
# [2] = target: HUβ(K67ac) (Escherichia coli BL21(DE3)) (UniProt P0ACF4); settings: homodimer, profile very similar to HUβ2; 2-nt gap in bottom strand; 30 mM Tris pH 7.5, 100 mM NaCl, 0.02% Tween20, 0.5 mg/ml BSA; 30-bp DNA 1 µM, 18°C 10 min, 10% PAGE in TBE; long DNA 250 ng in 15 µL, 37°C 1 h, 0.5% agarose in TAE; recombinant protein; residues 1-90; protein details: C-terminal 6xHis
Sequence,"binding result (HUα + HUβ(K86ac); no significant difference from HUαβ, nick in bottom strand)",binding result [1],binding result (HUα + HUβ(K67ac)),"binding result (HUα + HUβ(K86ac); no significant change versus HUαβ (p > 0.15), 2-nt gap in bottom strand)",binding result [2]
CCAACTTCCCTAACCCAGCTGCGATCCGTA / TACGGATCGCAGC / TGGGTTAGGGAAGTTGG [30-bp duplex with nick],binds,binds more weakly,,,
CCAACTTCCCTAACCCAGCTGCGATCCGTA / TACGGATCGCAGC / GGTTAGGGAAGTTGG [30-bp duplex with 2-nt gap],,,binds,binds,binds
